Test results published in patent US20090221474A1.
Results are given in words; binding and its absence hold for the method and conditions named. In cells and extracts the contact can be indirect. Some results given as binding are weak or reduced against the parent protein; the word gives no strength.

Amino acid sequences for entries named in this document (tags omitted). Residues count along the entry.
UniProt Q32PJ8: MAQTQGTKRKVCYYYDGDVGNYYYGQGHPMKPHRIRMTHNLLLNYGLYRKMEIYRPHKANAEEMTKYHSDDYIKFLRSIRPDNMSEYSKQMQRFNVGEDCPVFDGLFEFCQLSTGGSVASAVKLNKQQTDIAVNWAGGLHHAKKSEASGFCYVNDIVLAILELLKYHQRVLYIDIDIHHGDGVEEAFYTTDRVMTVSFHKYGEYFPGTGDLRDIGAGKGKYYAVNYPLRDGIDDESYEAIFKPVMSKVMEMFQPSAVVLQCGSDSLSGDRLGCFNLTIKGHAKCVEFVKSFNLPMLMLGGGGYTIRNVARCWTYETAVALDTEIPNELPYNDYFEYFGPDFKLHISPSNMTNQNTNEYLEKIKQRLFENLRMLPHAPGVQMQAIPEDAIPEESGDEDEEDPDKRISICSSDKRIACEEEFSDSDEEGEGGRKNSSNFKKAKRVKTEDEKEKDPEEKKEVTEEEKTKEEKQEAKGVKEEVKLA
UniProt Q3MHL3, residues 2-425: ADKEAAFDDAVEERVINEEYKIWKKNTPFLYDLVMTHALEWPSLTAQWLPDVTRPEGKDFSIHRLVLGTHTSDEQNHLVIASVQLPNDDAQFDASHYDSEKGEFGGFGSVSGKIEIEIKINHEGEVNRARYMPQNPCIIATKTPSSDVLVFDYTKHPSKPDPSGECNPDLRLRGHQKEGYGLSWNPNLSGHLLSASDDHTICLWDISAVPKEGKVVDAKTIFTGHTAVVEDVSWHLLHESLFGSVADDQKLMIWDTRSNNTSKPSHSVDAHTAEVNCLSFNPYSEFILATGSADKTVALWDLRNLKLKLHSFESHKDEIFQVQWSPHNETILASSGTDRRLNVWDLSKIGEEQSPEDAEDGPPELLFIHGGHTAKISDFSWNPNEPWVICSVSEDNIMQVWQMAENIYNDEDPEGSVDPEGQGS

Biological target: bovine HD1 (bovine thymus trapoxin binding proteins p46-p49) (bovine) (UniProt Q32PJ8)
Assay: co-purification on the K-trap affinity matrix

“bovine RbAp48 (bovine thymus protein of ~50 kD) (from UniProt Q3MHL3 2-425)” was tested, and the binding was “binds”.
